Data: PMC9279504
No constants are given. Whether binding was seen depends on the method and setting. In cells and extracts the contact can be indirect. Binding calls can cover weak binding; strength is not graded here.

The chains behind the UniProt entries cited, without tags or fusion partners. Where a name states a change or a piece, a line headed by the entry shows the natural chain unless it says otherwise.
UniProt E9AWP3: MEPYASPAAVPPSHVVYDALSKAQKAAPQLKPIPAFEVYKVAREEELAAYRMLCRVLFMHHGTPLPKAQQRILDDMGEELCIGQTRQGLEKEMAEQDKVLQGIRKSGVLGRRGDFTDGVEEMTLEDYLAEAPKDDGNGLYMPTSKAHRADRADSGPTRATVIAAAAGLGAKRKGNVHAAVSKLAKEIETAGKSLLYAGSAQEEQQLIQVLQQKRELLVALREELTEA
UniProt E9AMX7: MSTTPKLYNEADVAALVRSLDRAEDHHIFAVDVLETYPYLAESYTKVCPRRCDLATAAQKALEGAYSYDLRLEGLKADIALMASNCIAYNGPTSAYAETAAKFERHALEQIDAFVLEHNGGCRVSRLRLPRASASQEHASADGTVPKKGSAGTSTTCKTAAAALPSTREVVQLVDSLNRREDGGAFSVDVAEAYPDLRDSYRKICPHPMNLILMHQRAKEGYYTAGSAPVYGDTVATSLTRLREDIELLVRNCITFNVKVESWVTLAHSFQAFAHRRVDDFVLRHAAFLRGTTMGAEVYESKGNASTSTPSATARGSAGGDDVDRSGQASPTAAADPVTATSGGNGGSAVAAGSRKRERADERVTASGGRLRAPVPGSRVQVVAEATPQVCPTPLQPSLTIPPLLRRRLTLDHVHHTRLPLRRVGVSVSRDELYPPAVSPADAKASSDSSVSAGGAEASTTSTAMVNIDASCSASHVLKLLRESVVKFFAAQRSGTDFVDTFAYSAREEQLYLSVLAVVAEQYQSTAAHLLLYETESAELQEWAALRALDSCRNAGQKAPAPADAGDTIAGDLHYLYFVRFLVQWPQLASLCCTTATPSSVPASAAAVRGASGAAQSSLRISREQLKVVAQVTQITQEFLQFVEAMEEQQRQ

Tests used:
Test in all cases: co-IP; non-crosslinking: lysis in 150 mM KCl with 0.2 % IGEPAL CA-630, anti-HA magnetic beads 1 h 4 C for 3xHA::mCherry bait; blot for Myc (BDF5 prey) and HA
[1] = target: BDF8 (LmxM.33.2300) tagged with 3xHA::mCherry (L. mexicana) (UniProt E9B516)
[2] = target: LmxM.08_29.1550 tagged with 3xHA::mCherry (L. mexicana) (UniProt E9ALR9)
[3] = target: LmxM.22.0880 tagged with 3xHA::mCherry (L. mexicana) (UniProt E9AVS0)
[4] = target: LmxM.24.0530 tagged with 3xHA::mCherry (L. mexicana) (UniProt E9AWP3)

Measured: binding

mNG::3xMyc::BDF5 (bromodomain factor 5, endogenously tagged) (from UniProt E9AMX7)
binds: all assays above
